Laboratory results reported in publication PMC5404189.
These are yes or no findings as the source states them, for the method shown. For some assays here: Binding seen in cells or lysates may run through a third protein. Some binding calls cover weakened binding; strength is not graded here.

Amino acid sequences for entries named in this document (tags omitted). A change or cut given only in a name is not applied to a line headed by its entry. Residues count along the entry.
UniProt A6QG59, residues 30-165: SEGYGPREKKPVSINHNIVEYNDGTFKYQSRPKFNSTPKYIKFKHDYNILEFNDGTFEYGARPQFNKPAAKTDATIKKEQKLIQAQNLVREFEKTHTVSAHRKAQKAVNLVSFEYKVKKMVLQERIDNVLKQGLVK
UniProt P02671: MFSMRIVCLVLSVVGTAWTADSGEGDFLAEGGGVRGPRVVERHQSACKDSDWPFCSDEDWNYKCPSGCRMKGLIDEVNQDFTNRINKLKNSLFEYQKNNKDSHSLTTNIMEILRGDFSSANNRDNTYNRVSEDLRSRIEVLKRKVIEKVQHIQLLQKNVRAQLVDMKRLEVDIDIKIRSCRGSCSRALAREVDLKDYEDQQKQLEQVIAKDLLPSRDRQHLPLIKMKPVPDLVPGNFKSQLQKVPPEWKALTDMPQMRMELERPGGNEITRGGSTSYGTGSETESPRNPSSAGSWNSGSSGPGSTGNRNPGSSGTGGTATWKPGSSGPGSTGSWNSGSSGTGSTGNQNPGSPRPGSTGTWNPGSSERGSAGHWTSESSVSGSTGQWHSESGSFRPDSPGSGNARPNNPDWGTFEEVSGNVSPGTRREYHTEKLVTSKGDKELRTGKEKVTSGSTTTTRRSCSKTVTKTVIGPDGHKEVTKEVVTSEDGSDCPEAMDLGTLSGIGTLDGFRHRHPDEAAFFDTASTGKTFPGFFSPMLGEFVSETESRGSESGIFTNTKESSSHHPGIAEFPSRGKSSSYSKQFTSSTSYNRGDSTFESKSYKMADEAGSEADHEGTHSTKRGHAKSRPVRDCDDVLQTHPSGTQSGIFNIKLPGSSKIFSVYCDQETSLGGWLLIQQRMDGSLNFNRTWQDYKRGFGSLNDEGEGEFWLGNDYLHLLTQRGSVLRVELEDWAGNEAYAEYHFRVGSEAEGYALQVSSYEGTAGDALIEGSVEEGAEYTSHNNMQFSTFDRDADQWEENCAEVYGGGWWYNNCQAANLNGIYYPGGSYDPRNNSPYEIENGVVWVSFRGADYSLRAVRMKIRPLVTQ
UniProt E9PV24: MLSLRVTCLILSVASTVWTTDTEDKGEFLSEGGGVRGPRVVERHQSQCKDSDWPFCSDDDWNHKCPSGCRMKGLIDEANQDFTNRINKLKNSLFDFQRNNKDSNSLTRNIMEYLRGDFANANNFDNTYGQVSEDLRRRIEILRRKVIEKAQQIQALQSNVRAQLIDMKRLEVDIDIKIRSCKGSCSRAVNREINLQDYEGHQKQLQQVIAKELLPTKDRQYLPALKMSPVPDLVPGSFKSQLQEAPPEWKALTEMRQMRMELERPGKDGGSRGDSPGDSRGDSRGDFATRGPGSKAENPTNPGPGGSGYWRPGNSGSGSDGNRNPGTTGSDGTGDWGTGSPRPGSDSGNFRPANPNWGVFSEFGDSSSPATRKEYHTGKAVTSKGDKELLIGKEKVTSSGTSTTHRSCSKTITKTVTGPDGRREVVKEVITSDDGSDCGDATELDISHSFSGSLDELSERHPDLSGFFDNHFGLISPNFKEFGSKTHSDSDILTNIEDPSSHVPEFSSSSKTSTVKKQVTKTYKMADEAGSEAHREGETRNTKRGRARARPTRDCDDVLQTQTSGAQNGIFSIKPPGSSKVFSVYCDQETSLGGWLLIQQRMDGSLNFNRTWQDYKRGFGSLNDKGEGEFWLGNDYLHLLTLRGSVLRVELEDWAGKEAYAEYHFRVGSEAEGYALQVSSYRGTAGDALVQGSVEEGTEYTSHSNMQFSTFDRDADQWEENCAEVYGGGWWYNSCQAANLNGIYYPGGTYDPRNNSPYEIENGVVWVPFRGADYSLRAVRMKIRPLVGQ
UniProt Q8K0E8: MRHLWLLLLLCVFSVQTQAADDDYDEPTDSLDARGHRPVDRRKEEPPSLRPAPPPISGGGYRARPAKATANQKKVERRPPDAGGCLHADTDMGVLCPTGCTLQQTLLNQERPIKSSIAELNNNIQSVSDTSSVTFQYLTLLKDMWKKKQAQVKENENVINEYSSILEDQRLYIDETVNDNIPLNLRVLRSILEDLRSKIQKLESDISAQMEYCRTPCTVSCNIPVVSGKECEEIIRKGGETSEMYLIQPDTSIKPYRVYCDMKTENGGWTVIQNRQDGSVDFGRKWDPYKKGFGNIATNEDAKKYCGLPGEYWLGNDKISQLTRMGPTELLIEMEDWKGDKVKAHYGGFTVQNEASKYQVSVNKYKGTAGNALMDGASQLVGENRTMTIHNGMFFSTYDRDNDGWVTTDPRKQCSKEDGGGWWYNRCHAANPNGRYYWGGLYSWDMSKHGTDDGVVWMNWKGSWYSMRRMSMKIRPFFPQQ
UniProt Q8VCM7: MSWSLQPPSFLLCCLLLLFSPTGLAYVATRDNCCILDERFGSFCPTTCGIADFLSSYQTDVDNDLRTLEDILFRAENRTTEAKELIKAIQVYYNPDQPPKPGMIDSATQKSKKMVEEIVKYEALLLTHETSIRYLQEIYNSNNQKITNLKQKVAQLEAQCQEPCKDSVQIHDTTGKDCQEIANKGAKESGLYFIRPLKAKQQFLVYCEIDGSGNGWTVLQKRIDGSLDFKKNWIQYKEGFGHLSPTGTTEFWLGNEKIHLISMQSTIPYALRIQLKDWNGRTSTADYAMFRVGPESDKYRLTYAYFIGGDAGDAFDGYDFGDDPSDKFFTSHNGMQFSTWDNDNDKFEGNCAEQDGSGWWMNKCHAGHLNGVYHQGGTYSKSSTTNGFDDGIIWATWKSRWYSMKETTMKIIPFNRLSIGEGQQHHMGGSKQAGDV
UniProt P02675: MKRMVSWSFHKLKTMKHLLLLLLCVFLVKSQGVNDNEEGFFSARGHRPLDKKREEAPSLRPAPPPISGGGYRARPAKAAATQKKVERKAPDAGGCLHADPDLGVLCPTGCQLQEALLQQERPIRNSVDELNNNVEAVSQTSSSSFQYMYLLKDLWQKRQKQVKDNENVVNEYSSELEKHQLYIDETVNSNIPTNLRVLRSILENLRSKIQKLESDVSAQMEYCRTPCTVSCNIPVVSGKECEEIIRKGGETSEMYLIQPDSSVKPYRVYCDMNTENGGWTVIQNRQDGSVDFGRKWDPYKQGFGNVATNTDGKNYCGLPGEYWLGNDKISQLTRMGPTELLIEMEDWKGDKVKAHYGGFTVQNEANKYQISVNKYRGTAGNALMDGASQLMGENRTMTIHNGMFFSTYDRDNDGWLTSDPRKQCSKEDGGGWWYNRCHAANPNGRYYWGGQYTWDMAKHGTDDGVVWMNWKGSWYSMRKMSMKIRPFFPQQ
UniProt P02679: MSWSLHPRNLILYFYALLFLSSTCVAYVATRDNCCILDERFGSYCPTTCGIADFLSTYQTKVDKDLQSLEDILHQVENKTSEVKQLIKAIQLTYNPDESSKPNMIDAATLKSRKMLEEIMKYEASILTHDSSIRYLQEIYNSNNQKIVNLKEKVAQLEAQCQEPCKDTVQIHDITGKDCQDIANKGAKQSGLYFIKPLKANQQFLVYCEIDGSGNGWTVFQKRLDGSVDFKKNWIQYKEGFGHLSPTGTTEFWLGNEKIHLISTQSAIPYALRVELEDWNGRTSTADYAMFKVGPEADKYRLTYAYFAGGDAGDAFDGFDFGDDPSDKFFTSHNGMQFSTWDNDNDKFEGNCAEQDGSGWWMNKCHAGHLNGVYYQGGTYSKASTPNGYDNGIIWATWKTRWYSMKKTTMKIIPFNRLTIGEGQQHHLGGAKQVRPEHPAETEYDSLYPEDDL

How the values were obtained:
[1] = target: extracellular fibrinogen binding protein (Staphylococcus aureus) (UniProt A6QG59); test: ELISA; only the target purified
[2] = target: extracellular fibrinogen binding protein (Staphylococcus aureus) (UniProt A6QG59); test: pull-down; only the target purified
[3] = target: human fibrinogen (human) (UniProt P02671); test: ELISA; the same inhibition ELISA: the pair that is blocked, Efb in solution on coated human fibrinogen; both purified

| Substance | binding [1] | binding [2] | binding [3] |
| --- | --- | --- | --- |
| fibrinogen of mouse plasma (from UniProt E9PV24;Q8K0E8;Q8VCM7) | binds | binds | – |
| extracellular fibrinogen binding protein (from UniProt A6QG59 30-165) | – | – | binds |
| human fibrinogen (from UniProt P02671;P02675;P02679) | binds | binds | – |
